Legend:
Assay in all cases: animal or person
Rattus norvegicus [1] = species on record: Rattus norvegicus; type: functional
Rattus norvegicus [2] = species on record: Rattus norvegicus; type: functional; remark: listed apart in the source
Rattus norvegicus [3] = species on record: Rattus norvegicus; type: functional; remark: listed apart in the source
Rattus norvegicus [4] = species on record: Rattus norvegicus; conditions: Foot pad, read-out: Inhibition

Compound: NS(=O)(=O)c1ccc(-n2ncc(Cl)c2-c2ccccc2)cc1
- ED50 (Rattus norvegicus [1]): 0.33 mg/kg
- ED50 (Rattus norvegicus [2]): 9.2 mg/kg
- ED50 (Rattus norvegicus [3]): 32.3 mg/kg

Compound: NS(=O)(=O)c1ccc(-n2nc(C(F)(F)F)cc2-c2ccccc2)cc1
- ED50 (Rattus norvegicus [1]): 0.29 mg/kg
- inhibition in vivo at 30 mg/kg (Rattus norvegicus [4]): 50%

— ChEMBL document CHEMBL1130002, “Synthesis and biological evaluation of the 1,5-diarylpyrazole class of cyclooxygenase-2 inhibitors: identification of 4-[5-(4-methylphenyl)-3-(trifluoromethyl)-1H-pyrazol-1-yl]benze nesulfonamide (SC-58635, celecoxib)” (J Med Chem, 1997)
